Measurements reported in PubChem BioAssay AID1053208 (Peter MacCallum Cancer Centre, 2014).
Aim: 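Find knock-downs that sensitise mouse osteosarcoma cells to doxorubicin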 (primary screen). Cells: mouse osteosarcoma cells, early-passage culture from an engineered mouse model of fibroblastic bone tumour. Reagent: siRNA pool against mouse genes, 40 nM. Duration: about 120 h (48 h before drug, then 72 h with drug). Conditions: doxorubicin 100 nM for 72 h, roughly 30-40% inhibitory dose. Measured: 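Luminescent ATP signal taken as viability with or without 100 nM doxorubicin for 72 h; mean of two wells set against non-targeting siRNA and turned into robust z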. Reading the numbers: viability z-score with doxorubicin and doxorubicin viability vs non-targeting: higher = more viable cells under doxorubicin; viability z-score without drug: higher = more viable cells with knock-down alone; z-score of drug to no-drug ratio: higher = less drug sensitisation by knock-down. Rule for the call: 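Called active if knock-down leaves viability unchanged without drug (z within -2 to 2) but lowers it with doxorubicin (z at or under -2)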.
Here is a random part of about 17,000 reagents. 788 of them (4.7%) were called active. 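Calls rest on z-score classes alone; an extra cut-off of viability at most 70% of control was not applied to them.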

target gene	combined z-score class	viability z-score with doxorubicin	viability z-score without drug	z-score of drug to no-drug ratio	doxorubicin viability vs non-targeting	call
Fndc3a (GeneID 319448)	no change with or without drug	-0.45	-0.84	0.22	0.9	inactive
Zfp955a (GeneID 77652)	no change with or without drug	0	-1.18	1.01	0.94	inactive
Auh (GeneID 11992)	no change with or without drug	-1.12	1.18	-1.8	0.84	inactive
Or6c69c (GeneID 258666)	no change with or without drug	-1.8	0.34	-2.02	0.78	inactive
Coq8a (GeneID 67426)	no change with or without drug	-0.11	-0.51	0.34	0.93	inactive
Arl6 (GeneID 56297)	no change with or without drug	-1.01	-0.51	-0.67	0.85	inactive
Or14c45 (GeneID 258611)	no change with or without drug	-1.8	-1.85	-0.56	0.78	inactive
Ccn2 (GeneID 14219)	high cell count with doxorubicin only	2.02	-0.84	2.92	1.12	inactive
Rd3 (GeneID 74023)	no change with or without drug	0.67	0.17	0.67	1	inactive
Abcc10 (GeneID 224814)	no change with or without drug	-1.8	0.17	-1.91	0.78	inactive
Or8k20 (GeneID 404324)	no change with or without drug	-0.9	-1.85	0.45	0.86	inactive
Atp9a (GeneID 11981)	no change with or without drug	-0.22	0.51	-0.45	0.92	inactive
Klc3 (GeneID 232943)	no change with or without drug	-0.45	-0.17	-0.22	0.9	inactive
Trip12 (GeneID 14897)	no change with or without drug	0.34	-0.17	0.56	0.97	inactive
Cdx2 (GeneID 12591)	no change with or without drug	0.45	1.01	-0.11	0.98	inactive
Mmp12 (GeneID 17381)	no change with or without drug	-0.56	0.17	-0.56	0.89	inactive
Deaf1 (GeneID 54006)	no change with or without drug	-0.22	-0.84	0.45	0.92	inactive
Spon1 (GeneID 233744)	no change with or without drug	-1.12	-0.67	-0.67	0.84	inactive
Fgl2 (GeneID 14190)	no change with or without drug	-1.12	0	-1.12	0.84	inactive
Puf60 (GeneID 67959)	high cell count without drug only	-0.79	2.19	-1.91	0.87	inactive

A portion of the results above, as a working copy:
target gene	combined z-score class	viability z-score with doxorubicin	viability z-score without drug	z-score of drug to no-drug ratio	doxorubicin viability vs non-targeting	call
Fgl2 (GeneID 14190)	no change with or without drug	-1.12	0	-1.12	0.84	inactive
Puf60 (GeneID 67959)	high cell count without drug only	-0.79	2.19	-1.91	0.87	inactive
